{
  "source": "PubChem BioAssay AID540276",
  "about": "(National Center for Advancing Translational Sciences (NCATS), 2011)",
  "note": "“And” between values parts separate entries of the source, which are not always exact repeats. Equal entries are not always repeated. In all, about 300,000 compounds went through this assay and about 5,400 (1.8%) were called active. This list was built around the results that the source calls inconclusive (neither active nor inactive); the mix of calls is not that of the screen. The call rests on the fitted dose curve; tested in HEK293 cells. Where the call is inconclusive, the potency comes from a doubtful curve fit. Non-standard residues stand in square brackets, D forms with d. Residues, ends and D or L forms follow the SMILES beside them. ξ: configuration not given here. *: point of attachment. Cbz = O=C(OCc1ccccc1)*; ξP = O=C(O)C1CCCN1",
  "data": [
    {"test": "qHTS for inhibitors of binding or entry into cells for Marburg Virus; further: potency means the concentration at half of the fitted maximal effect; on activity change, negative = inhibition: on the % scale 0 is the no-effect control and ±100 the full control effect", "details": "Marburg virus pseudotyped entry inhibition, cell reporter; activity change, negative = inhibition: at 37.8 µM (top of the series) unless noted", "values": [
      {"smiles": "O=C(NN/C(=N/S(=O)(=O)c1ccc(Cl)cc1)c1ccccc1)c1ccc(O)cc1", "Potency": "active: 20 µM"},
      {"smiles": "COc1ccccc1CNC(=O)C(=O)NCCC1CCCCN1S(=O)(=O)c1ccc(C)cc1", "note": "(stereo not drawn)", "Potency": "inconclusive: 35.5 µM [inhibitor, single point]"},
      {"smiles": "Cc1onc(-c2ccccc2)c1-c1nnc(CN2CCN(S(=O)(=O)c3ccccc3F)CC2)o1", "Potency": "inconclusive: 0.562 µM [inhibitor, full curve, poor fit]"},
      {"smiles": "Cc1cccc(NCN2C(=O)c3ccncc3C2=O)n1", "activity change, negative = inhibition": "inactive: 13.5%"},
      {"smiles": "CCOP(=O)(OCC)c1nc(-c2cccc3ccccc23)oc1N1CCOCC1", "Potency": "inconclusive: 12.6 µM [inhibitor, partial curve, poor fit]"},
      {"smiles": "CC(C)CCOP(=O)(c1ccc(N(C)C)cc1)C(O)c1ccc(N(C)C)cc1", "note": "(stereo not drawn)", "activity change, negative = inhibition": "inactive: -7.74%"},
      {"smiles": "CCN(CC)CCCNC(=O)C(C)n1nc(C)n2c(cc3occc32)c1=O", "note": "(stereo not drawn)", "activity change, negative = inhibition": "inactive: -5.5% [at 46.1 µM]"},
      {"smiles": "Cc1c(Cl)cccc1NC(=O)CCn1cnnn1", "activity change, negative = inhibition": "inactive: -0.426% [at 46.1 µM]"},
      {"smiles": "CC(=O)Oc1ccc(C2=Cc3ccc(OC(C)=O)cc3OC2C)cc1", "note": "(stereo not drawn)", "Potency": "inconclusive: 17.8 µM [inhibitor, single point]"},
      {"smiles": "Cc1cnc(CN2CCc3c([nH]c4ccccc34)C2C2CCCCC2)[nH]1", "note": "(stereo not drawn)", "Potency": "inconclusive: 35.5 µM [inhibitor, single point]"},
      {"smiles": "CC(=O)Nc1nonc1NC(=O)c1ccc(C(C)(C)C)cc1", "Potency": "inconclusive: 5.8 µM [activator, full curve]"},
      {"smiles": "CCOc1ccc(/C=N/NC(=O)C2CC2)c(OCC)c1", "activity change, negative = inhibition": "inactive: 7.47% [at 46.1 µM]"},
      {"smiles": "Brc1[nH]nc2ccccc12", "Potency": "inconclusive: 29.1 µM [activator, single point]"},
      {"smiles": "COc1ccc(-c2cc(C(=O)N3CCN(c4ccccc4O)CC3)c3ccccc3n2)cc1OC", "Potency": "inconclusive: 17.8 µM [inhibitor, single point]"},
      {"smiles": "COc1cccc(CNC(=O)CCC2CCCN(C(=O)c3cccc4c(C)c(C)[nH]c34)C2)c1", "note": "(stereo not drawn)", "Potency": "inconclusive: 14.1 µM [inhibitor, single point]"},
      {"smiles": "C/C(=N\\O)c1ccc2c3c([nH]c2c1)CCCC3", "activity change, negative = inhibition": "inactive: -2.05%"},
      {"smiles": "O=S(=O)(c1ccccc1)N1CCC(O)(CSc2ccccc2)CC1", "Potency": "inconclusive: 32.6 µM [inhibitor, single point]"},
      {"smiles": "COc1ccc(NC(=O)CSc2nnc(-c3nonc3NC(C)=O)n2C)cc1Cl", "activity change, negative = inhibition": "inactive: 13.6% [at 46.1 µM]"},
      {"smiles": "COC(=O)CNC(=O)C1CCCN1C(=O)CNC(=O)OCc1ccccc1", "note": "(stereo not drawn) (Cbz-Gly-[ξP]-Gly-OMe)", "Potency": "inconclusive: 3.55 µM [inhibitor, partial curve, poor fit]"},
      {"smiles": "CCN(CC)c1ccc(Nc2cc3n(c(=O)n2)CCc2cc(OC)c(OC)cc2-3)cc1", "Potency": "inconclusive: 35.5 µM [inhibitor, single point]"},
      {"smiles": "CC(=O)Nc1cc(C(=O)N2CCOCC2)ccc1S(=O)(=O)c1ccc(C)cc1", "activity change, negative = inhibition": "inactive: 21.5%"},
      {"smiles": "O=C(CN1CCC(O)(c2ccc3c(c2)OCO3)CC1)OC1CCCCC1", "activity change, negative = inhibition": "inactive: -2.65%"},
      {"smiles": "Cc1cccn2c(Nc3ccccc3)c(-c3ccc(N4CCOCC4)cc3)nc12", "Potency": "inconclusive: 35.5 µM [activator, single point]"},
      {"smiles": "NS(=O)(=O)c1ccc(NC(=O)c2ccc(OCC3CCCO3)cc2)cc1", "note": "(stereo not drawn)", "Potency": "inconclusive: 20 µM [inhibitor, partial curve, poor fit]"},
      {"smiles": "COc1cc(/C=N/N=C2/C(=O)Nc3ccccc32)cc(OC)c1O", "activity change, negative = inhibition": "inactive: 1.79%"},
      {"smiles": "COc1ccc2c(=O)c3c(=O)n(Cc4ccco4)c(-c4cc(OC)c(OC)c(OC)c4)nc3oc2c1", "activity change, negative = inhibition": "inactive: 12.7%"},
      {"smiles": "O=C(Nc1nnc(-c2ccccn2)o1)c1ccc(Br)cc1", "Potency": "inconclusive: 0.708 µM [inhibitor, partial curve, poor fit]"},
      {"smiles": "COCCCNC(=O)CCn1c(=O)c2ccccc2n(CC(=O)Nc2c(C)cc(C)cc2C)c1=O", "activity change, negative = inhibition": "inactive: 1.52% [at 46.1 µM]"},
      {"smiles": "COc1ccc(-n2c(SC(C)C(=O)Nc3ncc(Cl)cc3Cl)nc3ccccc32)cc1", "note": "(stereo not drawn)", "Potency": "inactive and inconclusive: 141 nM [inhibitor, full curve, poor fit]"},
      {"smiles": "CCOc1ccc(C2C(C#N)=C(N)Oc3nc[nH]c(=O)c32)cc1", "note": "(stereo not drawn)", "Potency": "inconclusive: 6.31 µM [inhibitor, single point]"},
      {"smiles": "C/C(CC(c1ccccc1)c1c(O)c2ccccc2oc1=O)=N\\NC(N)=S", "note": "(stereo not drawn)", "Potency": "inconclusive: 18.4 µM [inhibitor, partial curve, poor fit]"},
      {"smiles": "Cc1cc(C(=O)NP(=O)(N2CCOCC2)N2CCOCC2)c(C)n1-c1ccc(Br)cc1", "Potency": "inconclusive: 10 µM [inhibitor, partial curve, poor fit]"},
      {"smiles": "COC(=O)c1cc2c(s1)CS(=O)C2", "note": "(stereo not drawn)", "Potency": "inconclusive: 35.5 µM [activator, single point]"},
      {"smiles": "COc1ccc(-c2cc(C3CCN(Cc4ccc([N+](=O)[O-])cc4)CC3)[nH]n2)cc1", "Potency": "inconclusive: 4.47 µM [inhibitor, single point]"},
      {"smiles": "CCCCCCNS(=O)(=O)c1ccc(OC)c(OC)c1", "Potency": "inconclusive: 2.31 µM [inhibitor, partial curve, poor fit]"},
      {"smiles": "O=C(CCl)Nc1c(C(=O)Nc2ccc3c(c2)OCCO3)oc2ccccc12", "Potency": "inconclusive: 35.5 µM [inhibitor, single point]"},
      {"smiles": "CCN(CC)CC(=O)N1c2ccccc2Sc2ccc(Cl)cc21", "Potency": "inconclusive: 20.6 µM [inhibitor, single point]"},
      {"smiles": "O=S(=O)(c1ccc(Cl)cc1)N1CCN(Cc2c[nH]c3ccccc23)CC1", "Potency": "inconclusive: 29.1 µM [activator, single point]"},
      {"smiles": "Brc1ccc(N=Nc2ccc3ccccc3n2)cc1", "Potency": "inconclusive: 1.26 µM [inhibitor, full curve, poor fit]"},
      {"smiles": "CCOc1ccccc1-c1noc(CCCC(=O)NC2CCCCC2)n1", "activity change, negative = inhibition": "inactive: 21.7% [at 46.1 µM]"},
      {"smiles": "Cc1ccc(C)c(N2CCN(CC3CCCCC3)CC2)c1", "Potency": "inconclusive: 22.4 µM [inhibitor, single point]"},
      {"smiles": "Cc1cc(Sc2nc(N)ncc2[N+](=O)[O-])ncn1", "Potency": "inconclusive: 35.5 µM [inhibitor, single point]"},
      {"smiles": "OCCN1CCN(C(=S)Nc2cccc(C(F)(F)F)c2)CC1", "activity change, negative = inhibition": "inactive: -15.6% [at 46.1 µM]"},
      {"smiles": "CSc1ccccc1-c1nnc(-c2ccc(Cl)c(Cl)c2)o1", "Potency": "inconclusive: 8.91 µM [activator, partial curve, poor fit]"},
      {"smiles": "CCCOC1OC(=O)c2c1ccc(OC)c2OC", "note": "(stereo not drawn)", "activity change, negative = inhibition": "inactive: 7.78%"},
      {"smiles": "COc1cccc(C(=O)NN2C(=S)N(c3ccccc3)C(=O)C2CC(N)=O)c1", "note": "(stereo not drawn)", "activity change, negative = inhibition": "inactive: 29.4%"},
      {"smiles": "Cc1cc(C)nc(NC(=S)Nc2cccc(F)c2)c1", "activity change, negative = inhibition": "inactive: 2.73%"},
      {"smiles": "O=C(/C=C/c1ccc(Cl)cc1)NC(=S)Nc1ccc(N2CCOCC2)c(Cl)c1", "Potency": "inconclusive: 11.2 µM [inhibitor, partial curve, poor fit]"},
      {"smiles": "Cc1cc(C)n(S(=O)(=O)/C=C/c2ccccc2)n1", "Potency": "active: 5.17 µM"},
      {"smiles": "CCOC(=O)c1csc(NC(=O)c2ccc(N3C(=O)CCC3=O)cc2)n1", "activity change, negative = inhibition": "inactive: 3.2% [at 46.1 µM]"},
      {"smiles": "O=C(CCN1C(=O)C2C3CCC(C3)C2C1=O)Nc1ccc(Cl)cc1Cl", "note": "(stereo not drawn)", "Potency": "inconclusive: 11.2 µM [activator, partial curve]"},
      {"smiles": "CC(C)c1ccc(CN2C(=O)c3ccccc3S2(=O)=O)cc1", "Potency": "inconclusive: 35.5 µM [inhibitor, single point]"},
      {"smiles": "COc1ccc(S(=O)(=O)NCC(=O)N(Cc2ccco2)C(C(=O)NC(C)(C)C)C(C)C)cc1", "note": "(stereo not drawn)", "Potency": "inconclusive: 35.5 µM [inhibitor, single point]"},
      {"smiles": "CN(Cc1ccc(Br)cc1)CC(O)COc1cccc(Br)c1", "note": "(stereo not drawn)", "Potency": "inconclusive: 35.5 µM [inhibitor, single point]"},
      {"smiles": "CC(Sc1nnc(C2CC2)n1N)C(=O)NC1CCCCC1C", "note": "(stereo not drawn)", "activity change, negative = inhibition": "inactive: -12.5%"},
      {"smiles": "COc1ccccc1CNC(=O)CN1NS(=O)(=O)c2ccccc2C1=O", "Potency": "inconclusive: 35.5 µM [inhibitor, single point]"},
      {"smiles": "COc1ccc(C(=O)Nc2cccc(C(C)=O)c2)c(OC)c1OC", "activity change, negative = inhibition": "inactive: 6.56%"},
      {"smiles": "CN(C)c1ccc(C(=O)NCCCSc2ccccc2)cc1", "Potency": "inconclusive: 0.794 µM [activator, partial curve, poor fit]"},
      {"smiles": "CC(C)(C)c1nnc2sc(SCC(=O)N3CCCCC3)nn2c1=O", "Potency": "inconclusive: 8.91 µM [inhibitor, partial curve]"},
      {"smiles": "CC1(C)CC(=O)C2=C(C1)N=C1SCCC(=O)N1C2c1ccccc1", "note": "(stereo not drawn)", "Potency": "inconclusive: 1.83 µM [activator, partial curve, poor fit]"},
      {"smiles": "COc1ccc(C(=O)CSc2nnn(-c3cccc(NC(C)=O)c3)n2)cc1", "activity change, negative = inhibition": "inactive: -11.6% [at 46.1 µM]"},
      {"smiles": "CCCCn1c2ccc(F)cc2c2nnc(SCCN3CCCCC3)nc21", "Potency": "inactive"},
      {"smiles": "CC(=O)C1=C(C)NC(=O)NC1c1ccc2c(c1)OCO2", "note": "(stereo not drawn)", "activity change, negative = inhibition": "inactive: 2.27% [at 46.1 µM]"},
      {"smiles": "CC(=O)c1sc(NC(=O)CCN2C(=O)c3ccccc3C2=O)nc1C", "Potency": "inconclusive: 35.5 µM [activator, single point]"},
      {"smiles": "Cc1oc2ccc(OCc3ccc(Cl)cc3)cc2c1C(=O)O", "activity change, negative = inhibition": "inactive: 4.94% [at 46.1 µM]"},
      {"smiles": "COc1ccc(CNCCc2ccc(Cl)cc2Cl)cc1", "activity change, negative = inhibition": "inactive: 12.6%"},
      {"smiles": "Oc1ccc(Cl)c2cccnc12", "activity change, negative = inhibition": "inactive: -17.4%"},
      {"smiles": "NC(=S)N/N=C1\\CC(n2nnnc2-c2ccccc2Cl)C2COC1O2", "note": "(stereo not drawn)", "Potency": "inconclusive: 6.31 µM [inhibitor, partial curve, poor fit]"},
      {"smiles": "CCOC(=O)c1ccc(NC(=O)CSc2n[nH]c(-c3ccncc3)n2)cc1", "Potency": "inconclusive: 5.62 µM [inhibitor, single point]"},
      {"smiles": "COc1ccc(CNc2ccc([N+](=O)[O-])cn2)cc1", "Potency": "inconclusive: 5.62 µM [activator, single point]"},
      {"smiles": "CCCSc1nnc(N)s1", "Potency": "inconclusive: 3.55 µM [activator, full curve, poor fit]"},
      {"smiles": "CCOC(=O)CSc1nnc2c(n1)C1(C)CCC2C1(C)C", "note": "(stereo not drawn)", "activity change, negative = inhibition": "inactive: 2.37%"},
      {"smiles": "c1ccc(Oc2ccc3ccccc3n2)cc1", "activity change, negative = inhibition": "inactive: -14.6% [at 46.1 µM]"}
    ]}
  ]
}
